The text below walks through data of the supplement of paper PMC12823440, “Inhibitors supercharge kinase turnover through native proteolytic circuits” (Nature, 2025).

Counter-ions that a name gives are not always drawn. Some of the results follow. The calls rarely recur for the same compound in another form.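 In K562 cells expressing nanoluciferase-fused kinases, luminescence was recorded at 4 h intervals between 2 and 18 h, normalized as percent of control with DMSO at 100% and a positive control at 0%. A significant (2 sigma) signal drop marks a time point as decreased. The authors' rule for a hit is not shown and takes in more than the number of time points.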

The target in this assay is HER2 (UniProt P04626). As to the kind of experiment: number of time points (of 5) at which kinase-Nluc abundance scored as decreased, DMSO-normalised (count); higher = more persistent destabilization. As to conditions: K562; 2-18 h.
With `C=C(CCC=C(C)C)[C@H]1CC[C@]2(C)[C@@H]1[C@H](O)C[C@@H]1[C@@]3(C)CC[C@H](O[C@@H]4O[C@H](CO)[C@@H](O)[C@H](O)[C@H]4O[C@@H]4O[C@H](CO)[C@@H](O)[C@H](O)[C@H]4O)C(C)(C)[C@@H]3CC[C@]12C` [Ginsenoside Rk1] (10 µM), the “number of time points” value is 0.

With `CCn1c(=O)c(-c2ccc(-c3cncs3)cc2Cl)cc2cnc(Nc3ccc(N4CCN(C)CC4)cc3)nc21` (2.5 µM), the “number of time points” value was found to be 0.

Take `Nc1nccc(Oc2ccc(NC(=O)c3cn(COP(=O)(O)O)cc(-c4ccc(F)cc4)c3=O)cc2F)c1Cl` (10 µM): the “number of time points” value was determined as 0.

Regarding `Cc1cc(-c2cc(OC(=O)c3ccccc3)ccc2Cl)cc2nnc(Nc3ccc(OCCN4CCCC4)cc3)nc12` (0.5 µM), the “number of time points” value was determined as 0.

`OC[C@H]1O[C@@H](Oc2cc3c(O)cc(O)cc3[o+]c2-c2cc(O)c(O)c(O)c2)[C@H](O)[C@@H](O)[C@@H]1O` [Delphinidin 3-glucoside (chloride)] (10 µM): the “number of time points” value is 0.

For `O=C(/C=C/c1ccc(O)c(O)c1)c1ccc(O[C@@H]2O[C@H](CO)[C@@H](O)[C@H](O)[C@H]2O)c(O)c1O` [Marein] (10 µM), the “number of time points” value turned out to be 0.

As to `O=C1Nc2nc(-c3c(O)cccc3OCC3CC3)cc([C@@H]3CCCNC3)c2CO1` [Bay 65-1942 (hydrochloride)] (10 µM), the “number of time points” value is 0.

In the case of `CC(C)CN(CC(=O)N1CCN(CC(OCc2ccc3ccccc3c2)c2ccc(Cl)cc2Cl)CC1)CC(C)C` (centres undefined) [LYN-1604 (dihydrochloride)] (2.5 µM), the “number of time points” value came to 0.

As for `CCc1cc(O)c(F)cc1-c1ccc2c(-c3nc4c([nH]3)CN(C3CCN(C)CC3)CC4)n[nH]c2c1` [JAK-IN-5 (hydrochloride)] (2 µM), the “number of time points” value worked out at 0.

For the compound `Cc1ccc(Nc2cc(-c3cccc(N4C(=O)c5ccccc5C4=O)c3)ncn2)cc1NS(C)(=O)=O` (10 µM), the “number of time points” value came out at 0.

In the case of `C=C1C(=O)O[C@@H]2C[C@@]3(C)CCC[C@H](C)C3=C[C@H]12` [Alantolactone] (10 µM), the “number of time points” value amounted to 0.

As to `C=C(C)C(=O)Nc1cccc(-c2ncnc3[nH]cc(C(=O)OCC)c23)c1` (10 µM), the “number of time points” value amounted to 0.

Regarding `CNc1nc(Nc2cnn(C3CCN(C4COC4)CC3F)c2Cl)ncc1C(F)(F)F` (centres undefined) (10 µM), the “number of time points” value was found to be 0.

As for `Cc1cc(Nc2cc(Cl)nc(Oc3ccc([N+](=O)[O-])cc3)n2)n[nH]1` [Autophinib] (2.5 µM), the “number of time points” value was 0.

`CC(C)=CC[C@H](O)C1=CC(=O)c2c(O)ccc(O)c2C1=O` [(-)-Alkannin] (2.5 µM): the “number of time points” value was 0.

With `CNCc1ccccc1-c1csc([C@@H](C)Nc2nc(C)nc3cc(OC)c(OC)cc23)c1` (2.5 µM), the “number of time points” value was found to be 0.

Consider `COc1ncc(-c2nc(N3CCOCC3)nc3c(CN4CCC(C(C)(C)O)CC4)cc(F)cc23)cc1NS(C)(=O)=O` [Linperlisib] (10 µM), for which the “number of time points” value was 0.

With `O=C(Nc1ccc(F)cc1F)[C@H](NC(=S)Nc1cc(C(F)(F)F)cc(C(F)(F)F)c1)c1ccccc1` (2.5 µM), the “number of time points” value was determined as 0.

As to `O=C1NC(=O)C(=Cc2ccc(-c3ccc(F)cc3)o2)S1` (stereo in doubt) (10 µM), the “number of time points” value was determined as 0.

Regarding `CCOc1cc(C(=O)N2CCC(N3CCN(C)CC3)CC2)ccc1Nc1ncc2c(n1)N(C1CCCC1)c1ccccc1C(=O)N2C` (10 µM), the “number of time points” value turned out to be 0.

On to `OC(COc1ccc(C(F)(F)F)cc1)CN(Cc1ccccc1)Cc1ccccc1` (centres undefined) (2.5 µM), for which the “number of time points” value was found to be 0.

As for `C[C@@H]1C(=O)O[C@H](C)[C@H]1C[C@@H](O)[C@](C)(O)[C@H]1CC[C@@]2(O)C3=CC(=O)[C@@H]4C[C@@H](O)[C@@H](O)C[C@]4(C)[C@H]3CC[C@]12C` [Cyasterone] (10 µM), the “number of time points” value came to 0.

Take `Cc1c(CN2CCN(C(=O)[C@H](C)O)CC2)sc2c(N3CCOCC3)nc(-c3cnc(N)nc3)nc12` [Apitolisib] (10 µM): the “number of time points” value came out at 2.

For `CC(C)(C)NC(=O)c1cncn1C1CCN(c2ccc(-c3nnc(C(F)(F)F)o3)cn2)CC1` (10 µM), the “number of time points” value turned out to be 0.

As to `NCc1ccc(Nc2ncc(F)c(Nc3ccccc3)n2)cc1` (10 µM), the “number of time points” value was determined as 0.

For `COC1(c2sc3c(N4CCOCC4)nc(-c4cnc(N)nc4)nc3c2C)COC1` (2.5 µM), the “number of time points” value was 1.

Consider `COc1cc2c[n+](C)c3c4cc5c(cc4ccc3c2cc1OC)OCO5` [Nitidine (chloride)] (2 µM), for which the “number of time points” value was 0.

For the compound `N#Cc1ccc2ncnc(NC3CCC(N4CCOCC4)CC3)c2c1` (centres undefined) (10 µM), the “number of time points” value turned out to be 0.

`COc1ccc2c(c1O)OC(C)(C)c1c-2ccc2c1C(=O)N(c1ccc(C(=O)c3ccccc3)cc1)C2=O` [Ampkinone] (10 µM): the “number of time points” value stood at 0.

With `CC1=C2C(=O)O[C@@H](c3ccoc3)[C@]2(C)CCC1` [Fraxinellone] (10 µM), the “number of time points” value amounted to 0.

Consider `CS(=O)(=O)c1ccc(-c2cnc(N)c(C(=O)Nc3ccccc3)n2)cc1` (10 µM), for which the “number of time points” value turned out to be 0.

For the compound `O=C(NC(NC(=S)Nc1ccc(F)c([N+](=O)[O-])c1)C(Cl)(Cl)Cl)C(c1ccccc1)c1ccccc1` (centres undefined) (10 µM), the “number of time points” value amounted to 0.

For `COc1cc(C(N)=O)nc(-c2cccc(C#C[C@]3(O)CCN(C)C3=O)c2)c1` (10 µM), the “number of time points” value was 0.

As for `O=C(Nc1cc(Oc2cc(F)c(NC(=O)C3(C(=O)Nc4ccc(F)cc4)CC3)cc2F)ccn1)C1CC1` [Altiratinib] (10 µM), the “number of time points” value worked out at 0.

As to `COc1ccc(Cl)cc1NC(=O)Nc1cc(C)nc2ccccc12` (2.5 µM), the “number of time points” value turned out to be 0.

Take `COc1ccc(CC(=O)Nc2nc3c(s2)CCc2ccccc2-3)cc1OC` (10 µM): the “number of time points” value came out at 0.

Take `N[C@H](Cc1c[nH]c2ccccc12)C(=O)N/N=C/c1ccc2nccnc2c1` [Rhosin (hydrochloride)] (10 µM): the “number of time points” value amounted to 0.

On to `CC(C)(C)c1ccc(S(=O)(=O)Nc2ccc(-n3ccnc3)cc2)cc1` (10 µM), for which the “number of time points” value was 0.

Regarding `Cc1ccc(-c2c(C(=O)CF)n(CCCO)c3ncnc(N)c23)cc1` (10 µM), the “number of time points” value came out at 0.
